Article PMC9215227
These are yes or no findings as the source states them, for the method shown. In cells and extracts the contact can be indirect. Some binding calls cover weakened binding; strength is not graded here. For some assays here: Tags and fused reporters may be left off the sequences shown.

Chains of the proteins cited; added tags and fusions are not shown.
UniProt P33469: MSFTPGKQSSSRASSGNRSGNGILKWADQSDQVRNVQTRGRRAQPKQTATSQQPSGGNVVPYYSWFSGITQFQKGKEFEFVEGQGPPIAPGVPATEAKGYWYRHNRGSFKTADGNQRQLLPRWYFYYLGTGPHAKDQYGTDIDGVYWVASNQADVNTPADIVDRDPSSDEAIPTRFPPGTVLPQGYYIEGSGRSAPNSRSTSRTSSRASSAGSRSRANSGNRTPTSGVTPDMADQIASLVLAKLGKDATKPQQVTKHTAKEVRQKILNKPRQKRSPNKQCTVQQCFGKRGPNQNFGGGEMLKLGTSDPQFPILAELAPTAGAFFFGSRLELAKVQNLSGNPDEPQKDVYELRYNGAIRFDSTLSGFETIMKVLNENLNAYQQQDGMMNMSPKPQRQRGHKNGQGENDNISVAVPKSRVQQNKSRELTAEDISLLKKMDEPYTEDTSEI

Legend:
[1] = target: Flag-G3BP1 (UniProt Q13283); assay: co-IP
[2] = target: T1, Flag-G3BP2 (UniProt Q9UN86); assay: co-IP
T1 sequence: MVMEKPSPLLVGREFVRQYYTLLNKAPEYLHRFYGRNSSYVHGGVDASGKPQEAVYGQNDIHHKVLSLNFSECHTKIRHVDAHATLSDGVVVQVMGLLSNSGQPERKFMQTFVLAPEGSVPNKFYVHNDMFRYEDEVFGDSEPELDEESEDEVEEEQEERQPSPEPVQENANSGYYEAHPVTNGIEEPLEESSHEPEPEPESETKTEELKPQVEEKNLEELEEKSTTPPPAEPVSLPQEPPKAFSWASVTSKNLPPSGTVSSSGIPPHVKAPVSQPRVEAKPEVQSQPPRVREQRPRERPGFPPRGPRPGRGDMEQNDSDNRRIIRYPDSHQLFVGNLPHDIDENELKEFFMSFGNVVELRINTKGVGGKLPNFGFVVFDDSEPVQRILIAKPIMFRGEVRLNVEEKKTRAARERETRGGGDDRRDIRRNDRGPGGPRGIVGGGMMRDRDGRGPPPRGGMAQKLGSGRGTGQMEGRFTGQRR

Row | Substance | binding [1] | binding [2]
1 | NP^SARS-CoV-green fluorescent protein (GFP) (from UniProt P59595 1-422) | binds | 
2 | eGFP-tagged NP^HCoV-OC43 (from UniProt P33469 1-448) |  | binds
